The values below come from PMC8654841.

Results are given in words; binding and its absence hold for the method and conditions named. Binding seen in cells or lysates may run through a third protein. Binding can be weak; no strength is given.

The experiment deals with T1, Tenascin-R (rat (endogenous in synaptosomes)) (UniProt Q05546).
T1 sequence: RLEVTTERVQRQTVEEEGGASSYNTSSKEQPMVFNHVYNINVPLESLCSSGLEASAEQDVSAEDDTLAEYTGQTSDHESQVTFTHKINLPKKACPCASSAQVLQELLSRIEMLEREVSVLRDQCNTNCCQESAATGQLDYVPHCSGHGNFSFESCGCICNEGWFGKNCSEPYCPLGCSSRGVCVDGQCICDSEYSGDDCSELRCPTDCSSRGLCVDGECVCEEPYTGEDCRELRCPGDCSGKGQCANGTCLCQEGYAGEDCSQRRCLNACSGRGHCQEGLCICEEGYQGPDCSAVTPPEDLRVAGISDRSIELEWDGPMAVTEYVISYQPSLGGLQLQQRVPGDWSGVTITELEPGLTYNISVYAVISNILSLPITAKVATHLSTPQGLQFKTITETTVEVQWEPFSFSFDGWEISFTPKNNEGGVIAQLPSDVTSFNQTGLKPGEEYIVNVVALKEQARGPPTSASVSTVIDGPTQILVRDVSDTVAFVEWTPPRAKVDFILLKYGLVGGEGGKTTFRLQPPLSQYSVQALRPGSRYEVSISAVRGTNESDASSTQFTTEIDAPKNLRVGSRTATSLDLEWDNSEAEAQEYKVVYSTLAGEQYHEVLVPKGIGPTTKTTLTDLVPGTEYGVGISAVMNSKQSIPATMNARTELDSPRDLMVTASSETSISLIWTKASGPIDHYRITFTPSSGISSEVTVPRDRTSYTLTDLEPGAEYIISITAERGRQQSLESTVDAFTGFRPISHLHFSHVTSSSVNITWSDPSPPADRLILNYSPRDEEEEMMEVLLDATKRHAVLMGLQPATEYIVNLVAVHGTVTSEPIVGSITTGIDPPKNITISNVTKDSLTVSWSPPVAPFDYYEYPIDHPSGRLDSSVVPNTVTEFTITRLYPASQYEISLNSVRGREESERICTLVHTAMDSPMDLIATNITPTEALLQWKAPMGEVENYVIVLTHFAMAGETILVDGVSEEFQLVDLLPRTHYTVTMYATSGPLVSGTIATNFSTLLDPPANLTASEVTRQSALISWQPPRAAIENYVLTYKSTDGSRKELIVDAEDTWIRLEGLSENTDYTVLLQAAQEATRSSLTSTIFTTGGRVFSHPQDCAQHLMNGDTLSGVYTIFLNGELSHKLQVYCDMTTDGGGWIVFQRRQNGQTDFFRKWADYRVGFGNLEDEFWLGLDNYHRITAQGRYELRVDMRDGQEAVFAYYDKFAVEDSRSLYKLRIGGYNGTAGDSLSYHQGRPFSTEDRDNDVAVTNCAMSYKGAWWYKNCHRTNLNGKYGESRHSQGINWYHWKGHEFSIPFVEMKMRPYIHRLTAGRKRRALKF
Put plainly: co-IP; rat brain synaptosomes incubated with anti-TNR antibody (1 h, 4 °C), permeabilized with 4% CHAPS, supernatant captured on Protein G Dynabeads, washed, eluted in SDS sample buffer; Western blot with anti-TNR and anti-Dynamin 1,2,3. (In general: A western blot detects proteins with antibodies after separation by electrophoresis.)

In the case of “dynamin (rat (endogenous in synaptosomes))”, the binding result is “binds”.
